From PubChem BioAssay AID540276 (National Center for Advancing Translational Sciences (NCATS), 2011)
Values joined by “and” are separate entries in the source; they are usually repeats but may differ in a detail not shown here. Identical values can stand only once. Out of some 300,000 compounds screened, about 5,400 (1.8%) were called active. This list was built around the results that the source calls inconclusive (neither active nor inactive); the mix of calls is not that of the screen. Calls come from the whole dose curve; tested in HEK293 cells. Potencies of inconclusive entries are doubtful fits and often do not repeat.

experiment: qHTS for inhibitors of binding or entry into cells for Marburg Virus; settings: Marburg virus pseudotyped entry inhibition, cell reporter; series mostly up to 37.8 µM
Potency is the fitted concentration of half-maximal effect.

Compound | Potency
Cc1ccc2c(c1)c1c3n2CCN(CC(O)CNC(C)C)C3CCC1 (stereo not drawn) | inconclusive: 20 µM [inhibitor, partial curve, poor fit]
CCc1nn(CC(=O)NCCC(C)C)c(=O)c2cc3occc3n12 | inconclusive: 0.316 µM [inhibitor, full curve, poor fit]
COc1ccc2[nH]cc(CCNC(=O)C3CCCCC3)c2c1 | inactive
CN(C)C(CNC(=O)c1cccc(S(=O)(=O)NCc2ccccc2)c1)c1ccco1 (stereo not drawn) | inactive
Nc1c(C(=O)Nc2ccccc2Cl)c2ccccn2c1C(=O)c1ccc(Cl)cc1 | inactive
CCN(CC)c1ccc2c(-c3ccc(S(=O)(=O)O)cc3S(=O)(=O)[O-])c3ccc(=[N+](CC)CC)cc-3oc2c1 | inactive
CCCCCOCC(O)CCC(=O)NN (stereo not drawn) | inactive
COc1ccc(N2C(=O)CSC2c2ccccc2)cc1 (stereo not drawn) | inactive
CC1(OC(=O)c2ccc(Cl)nc2)C(=O)Cc2cc(-c3ccsc3)ncc2C1=O (stereo not drawn) | inconclusive: 0.0299 µM [activator, full curve, poor fit]
Cc1cc(NC(=O)CCC(=O)N(c2ccc(C)c(F)c2)C(C(=O)NC2CCCC2)c2ccco2)no1 (stereo not drawn) | inconclusive: 10 µM [inhibitor, partial curve, poor fit]
O=C(CSc1ccccc1)N1CCc2ccccc21 | inactive
CCOc1ccc2nc(NC(=O)CSc3cn[nH]n3)sc2c1 | inconclusive: 5.01 µM [inhibitor, single point]
Cn1c(=O)c2cc(S(=O)(=O)Nc3cc(C(=O)O)cc(C(=O)O)c3)ccc2n(C)c1=O | inactive
Cn1c(=O)c2c(ncn2CC(=O)OCC(=O)c2ccc(Cl)cc2)n(C)c1=O | inconclusive: 5.62 µM [activator, single point]
Cc1ccc(N2CC(c3nnc(NC(=O)c4ccco4)s3)CC2=O)cc1Cl (stereo not drawn) | inactive
CCCCCCNCc1cccc(Br)c1 | inconclusive: 9.2 µM [inhibitor, partial curve]
CC(C)(CNc1ccc([N+](=O)[O-])cc1C#N)N1CCOCC1 | inconclusive: 3.16 µM [inhibitor, single point]
COc1ccccc1-c1noc(CSc2nnc(Cc3ccccc3)n2-c2ccc(C)c(C)c2)n1 | inactive
COCc1ccc(C(=O)N2CCCC(Nc3ccc4c(c3)OCCO4)C2)o1 (stereo not drawn) | inactive
Cc1cc(NS(=O)(=O)c2ccc3nc(-c4ccccc4)[nH]c3c2)ccc1Br | inactive
Cc1noc(C)c1-c1nc(CSc2ccccc2)no1 | inactive
Cc1cccc(C)c1N1CCN(C(=O)Nc2ccc3c(c2)OCCO3)CC1 | inconclusive: 6.51 µM [activator, partial curve, poor fit]
Cc1cccc(NC(=O)CSc2nc3c(oc4ccccc43)c(=O)n2Cc2ccco2)c1 | inconclusive: 5.62 µM [activator, single point]

Compound | Potency
CC1CCCN(CCCOc2ccccc2-c2ccccc2)C1 (stereo not drawn) | inconclusive: 12.6 µM [inhibitor, partial curve, poor fit]
CC(=C/c1ccccc1)/C=N/NC(=O)c1nnn(-c2nonc2N)c1CN1CCC(C)CC1 | inconclusive: 14.1 µM [inhibitor, partial curve, poor fit]
Fc1ccc(-c2ccc(Nc3cccc(F)c3)nn2)cc1 | inconclusive: 14.1 µM [activator, partial curve, poor fit]
CC(=O)NS(=O)(=O)c1ccc(NC(=S)NC(=O)COc2ccccc2C)cc1 | inconclusive: 35.5 µM [activator, single point]
CCC(=O)Nc1ccc2c(c1)OCCO2 | inactive
COc1ccc(CNc2cc(NCCCO)c([N+](=O)[O-])c3nonc23)cc1 | inconclusive: 35.5 µM [inhibitor, single point]
C[N+]1(C)C2CC(OC(=O)C(CO)c3ccccc3)CC1C1OC12 (stereo not drawn) | inconclusive: 0.0045 µM [inhibitor, full curve, poor fit]
CCc1ccc2[nH]c(=O)c(CN(CCN(CC)CC)C(=O)Nc3ccccc3OC)cc2c1 | inconclusive: 15.8 µM [inhibitor, single point]
COc1ccc(C)cc1Nc1nc2ccccc2c2nnc(C)n12 | inconclusive: 6.31 µM [inhibitor, single point]
CCOC(=O)c1ccc(-n2c(C)nc3ccc(Br)cc3c2=O)cc1 | inactive
O=C(NCC(c1cccs1)N1CCOCC1)c1ccccc1NS(=O)(=O)c1cccc([N+](=O)[O-])c1 (stereo not drawn) | inactive and inconclusive: 35.5 µM [inhibitor, single point]
COc1cccc(/C=C/C(=O)OCC(=O)NCc2ccco2)c1OC | inconclusive: 0.891 µM [inhibitor, full curve, poor fit]
CCOC(=O)C1(Cc2cccc(OC)c2)CCN(Cc2cccc3c2OCO3)CC1 | inconclusive: 35.5 µM [inhibitor, single point]
Cc1c(-c2cccc(Cl)c2)nc2ccccc2c1C(=O)OC/C(O)=C(\C#N)c1nc2ccccc2[nH]1 | inconclusive: 28.2 µM [inhibitor, partial curve, poor fit]
COc1ccc(/C(CC2(O)C(=O)Nc3ccccc32)=N\O)cc1 (stereo not drawn) | inconclusive: 20.6 µM [activator, single point]
CC(=O)N1CCN(S(=O)(=O)c2cccc(C(=O)NNC(=O)COc3ccc(F)cc3)c2)CC1 | inactive
CCN1CCN(CC(=O)Nc2nc3ccc(OC)cc3s2)CC1 | inconclusive: 35.5 µM [inhibitor, single point]
C=CC[n+]1c(-c2ccc(C)cc2)csc1NNC(=O)Nc1ccccc1 | inconclusive: 4.11 µM [inhibitor, partial curve]
CCOC(=O)CSC1=N/C(=C\c2cccnc2)C(=O)N1c1ccc(OC)cc1 | inconclusive: 11.2 µM [activator, single point]
COc1ccc(N/N=C(/C(N)=O)C2=NC(C)(C)Cc3ccccc32)cc1 | inconclusive: 9.2 µM [inhibitor, partial curve, poor fit]
CCOc1cccc2sc(N3CCN(C(=O)c4ccc5ncsc5c4)CC3)nc12 | inconclusive: 10 µM [inhibitor, single point]
CNC(=S)N(CCc1c(C)[nH]c2ccc(Cl)cc12)Cc1cc(OC)c(OC)c(OC)c1 | inconclusive: 4.61 µM [inhibitor, partial curve, poor fit]
O=C(c1ccc(F)cc1)C(CN1CCOCC1)c1ccccc1 (stereo not drawn) | inconclusive: 5.01 µM [inhibitor, partial curve, poor fit]

Compound | Potency
CCN(CC)S(=O)(=O)c1cccc(C(=O)Nc2ccc(S(=O)(=O)NC3=NCCCCC3)cc2)c1 | inactive
COc1ccccc1NC(=O)CCC(=O)Nc1nnc(C(F)(F)F)s1 | inconclusive: 29.1 µM [activator, single point]
O=C(CCCN1C(=O)c2cccnc2C1=O)Nc1ccc(F)cc1Cl | inactive
O=C(NCCc1ccc(C(F)(F)F)cc1)C1CCC(=O)N(C2CC2)C1 (stereo not drawn) | inactive
Cc1cc(C(=O)NN=C2CCCCC2)c2ccccc2n1 | inconclusive: 35.5 µM [inhibitor, single point]
COc1ccc(NC(=O)CSCC(=O)N2CCN(c3cccc(C(F)(F)F)c3)CC2)cc1 | inconclusive: 20 µM [inhibitor, single point]
Cc1nc2ccc(NC(=O)c3cccnc3)cc2s1 | inactive
CSCc1nnc(NC(=O)c2ccc(S(=O)(=O)N(C)C)cc2)o1 | inconclusive: 23.1 µM [activator, partial curve, poor fit]
O=Cc1ccc(-c2cccc([N+](=O)[O-])c2)o1 | inconclusive: 35.5 µM [activator, single point]
Oc1ccc(/C=C/c2nc(-c3ccccc3O)n(-c3ccccc3)n2)c(O)c1 | inconclusive: 35.5 µM [inhibitor, single point]
O=C(/C=C/c1ccc(Cl)c(Cl)c1)NCc1ccco1 | inactive
CCC(C)Nc1nc(Cl)nc(N(C#N)CN2C(=O)c3ccccc3S2(=O)=O)n1 (stereo not drawn) | inconclusive: 25.1 µM [inhibitor, single point]
NNC(=S)Nc1cc(S(=O)(=O)N2CCOCC2)ccc1N1CCOCC1 | inconclusive: 0.562 µM [activator, full curve, poor fit]
COCCn1c(-c2cccs2)csc1=Nc1cccnc1 | inactive
COc1cccc(NC(=O)Nc2cccn(Cc3ccc(C)cc3)c2=O)c1 | inconclusive: 32.6 µM [inhibitor, single point]
O=C(COC(=O)CCSc1ccc(Cl)cc1)NCc1ccccc1Cl | inactive
Cc1ccc(OC(=O)c2oc3ccc(F)cc3c2C)c(C)c1 | inconclusive: 29.1 µM [inhibitor, single point]
COC(=O)N/N=C/c1cccc(OC(=O)c2ccc3c(c2)OCO3)c1 | inconclusive: 0.708 µM [activator, partial curve, poor fit]
O=C(NCCCn1ccnc1)c1cccc(S(=O)(=O)NCc2ccccc2)c1 | inconclusive: 28.2 µM [inhibitor, single point]
Cc1ccc(-c2nn(-c3ccccc3)cc2C=O)o1 | inconclusive: 5.62 µM [activator, single point]
COc1ccc(-c2[nH]ncc2CN2CCN(C3CCCCC3)C(=O)C2)cc1F | inconclusive: 8.91 µM [inhibitor, partial curve, poor fit]
CC(C)(C)c1ccc(S(=O)(=O)N2CCN(CC(=O)NC(=O)NC3CCCCC3)CC2)cc1 | inconclusive: 35.5 µM [inhibitor, single point]
